From publication PMC7862700
The list shows a part of the results, in another mix than the full data. At the low end of the ranking the order means little.

What was measured:
Experiment in all cases: DAPPL (digital affinity profiling via proximity ligation, sequencing)
Conditions in all cases: 10 mM Tris-HCl pH 7.5, 50 mM NaCl, 1 mM DTT, 4% glycerol, room temperature, 30 min; GST-TFs on glutathione beads, 16-mer random dsDNA library, 0.1% …; high values mean tight binding; double strand, one strand shown; scale: fold enrichment (6-mer frequency, TF over GST control)
[1] = target: T1, ELK1 (UniProt P19419)
T1 sequence: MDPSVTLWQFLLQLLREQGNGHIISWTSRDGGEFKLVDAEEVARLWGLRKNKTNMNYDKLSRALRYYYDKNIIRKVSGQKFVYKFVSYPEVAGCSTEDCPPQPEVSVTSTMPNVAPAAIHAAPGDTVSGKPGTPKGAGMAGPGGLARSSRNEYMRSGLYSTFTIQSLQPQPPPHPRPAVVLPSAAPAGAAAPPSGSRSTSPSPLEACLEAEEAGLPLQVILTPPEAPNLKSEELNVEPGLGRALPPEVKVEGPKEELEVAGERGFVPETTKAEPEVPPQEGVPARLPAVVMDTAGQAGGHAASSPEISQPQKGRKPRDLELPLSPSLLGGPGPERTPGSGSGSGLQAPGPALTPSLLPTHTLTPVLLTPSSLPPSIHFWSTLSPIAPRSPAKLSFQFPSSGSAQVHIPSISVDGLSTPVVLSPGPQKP

[2] = target: T2, ELK3 (UniProt P41970)
T2 sequence: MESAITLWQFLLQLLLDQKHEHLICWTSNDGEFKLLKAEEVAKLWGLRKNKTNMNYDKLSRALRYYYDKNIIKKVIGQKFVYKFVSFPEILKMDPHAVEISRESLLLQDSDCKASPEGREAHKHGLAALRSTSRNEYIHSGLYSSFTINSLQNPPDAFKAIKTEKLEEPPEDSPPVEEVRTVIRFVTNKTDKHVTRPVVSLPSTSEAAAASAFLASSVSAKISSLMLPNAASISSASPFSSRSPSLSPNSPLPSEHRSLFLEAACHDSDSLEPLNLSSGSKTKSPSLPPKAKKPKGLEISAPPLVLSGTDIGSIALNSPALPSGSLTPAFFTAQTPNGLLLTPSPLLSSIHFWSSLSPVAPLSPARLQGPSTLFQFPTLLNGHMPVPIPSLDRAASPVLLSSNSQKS

[3] = target: T3, SPIC (UniProt Q8N5J4)
T3 sequence: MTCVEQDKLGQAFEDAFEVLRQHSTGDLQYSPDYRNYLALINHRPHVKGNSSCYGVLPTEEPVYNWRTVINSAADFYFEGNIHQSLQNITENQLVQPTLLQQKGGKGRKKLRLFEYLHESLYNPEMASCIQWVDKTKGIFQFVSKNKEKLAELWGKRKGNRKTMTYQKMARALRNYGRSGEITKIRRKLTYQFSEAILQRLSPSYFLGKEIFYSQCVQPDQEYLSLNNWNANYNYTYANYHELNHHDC

[4] = target: T4, ETS2 (UniProt P15036)
T4 sequence: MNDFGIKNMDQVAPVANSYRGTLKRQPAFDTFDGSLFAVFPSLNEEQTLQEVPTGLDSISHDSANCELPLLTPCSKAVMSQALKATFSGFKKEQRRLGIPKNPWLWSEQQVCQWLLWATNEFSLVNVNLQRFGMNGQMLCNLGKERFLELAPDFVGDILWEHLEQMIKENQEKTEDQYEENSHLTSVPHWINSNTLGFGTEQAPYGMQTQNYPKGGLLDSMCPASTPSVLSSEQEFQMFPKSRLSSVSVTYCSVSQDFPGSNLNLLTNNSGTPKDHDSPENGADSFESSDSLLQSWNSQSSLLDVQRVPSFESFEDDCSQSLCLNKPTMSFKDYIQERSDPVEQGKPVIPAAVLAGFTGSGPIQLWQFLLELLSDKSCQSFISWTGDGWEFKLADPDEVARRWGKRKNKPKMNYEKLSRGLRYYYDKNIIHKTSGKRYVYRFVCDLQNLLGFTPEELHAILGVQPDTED

[5] = target: T5, ETV3 (UniProt P41162-2)
T5 sequence: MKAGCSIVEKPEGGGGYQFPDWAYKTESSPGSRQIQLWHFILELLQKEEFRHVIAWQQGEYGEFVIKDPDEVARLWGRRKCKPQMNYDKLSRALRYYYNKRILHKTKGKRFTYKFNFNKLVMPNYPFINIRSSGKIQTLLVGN

| Sequence | binding signal [1] | binding signal [2] | binding signal [3] | binding signal [4] | binding signal [5] |
| --- | --- | --- | --- | --- | --- |
| GGACAA | 0.791 | 0.83 | 0.785 | 0.82 | 0.84 |
| ATGTGA | 0.642 | 0.625 | 0.638 | 0.64 | 0.642 |
| GATCGT | 0.402 | 0.381 | 0.447 | 0.411 | 0.417 |
| GATTGG | 0.886 |  | 0.971 | 0.836 | 0.745 |
| GGATAG | 0.752 | 0.738 | 0.746 | 0.746 | 0.747 |
| GGTAGA | 0.676 | 0.593 | 0.721 | 0.69 | 0.665 |
| GCATGA | 0.782 | 0.871 | 0.811 | 0.835 | 0.828 |
| CAGTCC | 0.64 | 0.616 | 0.604 | 0.579 | 0.658 |
| AAACGT | 0.996 |  | 0.939 | 0.904 | 0.935 |
| GTGAAC | 0.832 | 0.774 | 0.821 | 0.821 | 0.816 |
| GTCGGA | 0.153 | 0.184 | 0.195 | 0.165 | 0.158 |
| AGGAGA | 0.211 | 0.229 | 0.236 | 0.212 | 0.212 |
| GTGCAA | 0.919 | 0.965 | 0.882 | 0.935 | 0.967 |
| ATCGGC | 0.654 | 0.682 | 0.725 | 0.61 | 0.644 |
| CCGCGA | 0.756 | 0.703 | 0.62 | 0.723 | 0.746 |
| AGGTGC | 0.686 | 0.705 | 0.668 | 0.643 | 0.689 |
| CCCGGG | 0.828 | 0.659 | 0.831 | 0.807 | 0.8 |
| AGCCAA | 0.837 | 0.83 | 0.966 | 0.861 | 0.863 |
| GGGATC | 0.602 | 0.64 | 0.672 | 0.663 | 0.625 |
| GGCATG | 0.882 | 0.694 | 0.954 | 0.846 | 0.796 |
| GGGAAG | 0.798 | 0.884 | 0.973 | 0.895 | 0.841 |
| GGACGG | 0.477 | 0.52 | 0.432 | 0.527 | 0.508 |
| GGCCCA | 0.825 | 0.747 | 0.902 | 0.824 | 0.845 |
| GGCGAG | 0.515 | 0.561 | 0.59 | 0.559 | 0.493 |
| ACGTGA | 0.283 | 0.283 | 0.229 | 0.289 | 0.252 |
| AGGACA | 0.868 | 0.838 | 0.798 | 0.853 | 0.87 |
| TAGAGG | 0.826 | 0.798 | 0.903 | 0.781 | 0.809 |
| GGAGTC | 0.219 | 0.265 | 0.217 | 0.227 | 0.211 |

Taken from above:
GCATGA | binding signal [5]: 0.828
GATCGT | binding signal [2]: 0.381
